These are yes or no findings as the source states them, for the method shown. Some results given as binding are weak or reduced against the parent protein; the word gives no strength.
Tests used:
[1] = target: Epidermal growth factor receptor (human (endogenous in MDA-MB-231)) (UniProt P00533); assay: flow cytometry on cells; rhodamine B-conjugated peptides incubated with MDA-MB-231 cells (EGFR overexpressed) for 2 h at 37 °C; SiHa cells as EGFR-negative control; only the binder purified
[2] = target: Epidermal growth factor receptor (human (endogenous in MDA-MB-231)) (UniProt P00533); assay: confocal microscopy of cells with fluorescent peptide; confocal images of peptides on MDA-MB-231 cells, SiHa as receptor-negative control; details only in the supplementary file; only the binder purified

binding [1]: binds
binding [2]: binds
Binder: ARSHVGYTGAR (rhodamine B dye-conjugated (position not given)) [EGFR-specific short peptide E2 (…)]
